Assay results published in article doi:10.1101/2024.09.30.615192.
These are yes or no findings as the source states them, for the method shown. Binding seen in cells or lysates may run through a third protein. Here binding means that the protein was enriched with, or labelled near, the bait; the list need not be complete. Each block holds one molecule with its values, some of them ahead of it.

Sequences of proteins named here, by UniProt entry; tags and fusion partners are left off.
UniProt Q9NZJ7: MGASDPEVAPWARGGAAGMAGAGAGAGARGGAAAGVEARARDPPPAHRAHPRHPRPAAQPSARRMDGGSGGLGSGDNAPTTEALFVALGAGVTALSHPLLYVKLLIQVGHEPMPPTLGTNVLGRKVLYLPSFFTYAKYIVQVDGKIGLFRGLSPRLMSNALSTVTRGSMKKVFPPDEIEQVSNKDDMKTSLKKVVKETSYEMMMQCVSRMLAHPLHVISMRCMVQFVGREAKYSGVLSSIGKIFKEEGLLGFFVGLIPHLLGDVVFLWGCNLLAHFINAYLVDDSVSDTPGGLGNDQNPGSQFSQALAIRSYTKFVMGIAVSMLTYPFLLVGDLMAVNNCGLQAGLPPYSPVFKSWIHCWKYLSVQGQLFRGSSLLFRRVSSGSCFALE
UniProt Q9Y297: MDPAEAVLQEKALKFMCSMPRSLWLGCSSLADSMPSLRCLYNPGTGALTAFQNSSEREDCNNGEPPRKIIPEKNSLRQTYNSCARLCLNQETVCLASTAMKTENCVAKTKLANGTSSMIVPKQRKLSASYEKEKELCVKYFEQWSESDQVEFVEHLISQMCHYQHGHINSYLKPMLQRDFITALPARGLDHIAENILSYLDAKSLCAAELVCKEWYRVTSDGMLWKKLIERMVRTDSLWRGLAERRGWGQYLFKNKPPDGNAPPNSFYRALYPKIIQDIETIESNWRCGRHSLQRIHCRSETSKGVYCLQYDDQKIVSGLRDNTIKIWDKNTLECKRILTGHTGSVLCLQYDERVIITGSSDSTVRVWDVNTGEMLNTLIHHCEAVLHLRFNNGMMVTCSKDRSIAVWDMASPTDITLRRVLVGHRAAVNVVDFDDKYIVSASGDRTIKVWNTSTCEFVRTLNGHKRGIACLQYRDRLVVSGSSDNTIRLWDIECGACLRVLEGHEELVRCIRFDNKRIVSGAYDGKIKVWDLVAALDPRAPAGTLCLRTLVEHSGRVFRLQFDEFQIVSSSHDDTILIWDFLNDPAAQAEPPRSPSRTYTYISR
UniProt Q9UKB1: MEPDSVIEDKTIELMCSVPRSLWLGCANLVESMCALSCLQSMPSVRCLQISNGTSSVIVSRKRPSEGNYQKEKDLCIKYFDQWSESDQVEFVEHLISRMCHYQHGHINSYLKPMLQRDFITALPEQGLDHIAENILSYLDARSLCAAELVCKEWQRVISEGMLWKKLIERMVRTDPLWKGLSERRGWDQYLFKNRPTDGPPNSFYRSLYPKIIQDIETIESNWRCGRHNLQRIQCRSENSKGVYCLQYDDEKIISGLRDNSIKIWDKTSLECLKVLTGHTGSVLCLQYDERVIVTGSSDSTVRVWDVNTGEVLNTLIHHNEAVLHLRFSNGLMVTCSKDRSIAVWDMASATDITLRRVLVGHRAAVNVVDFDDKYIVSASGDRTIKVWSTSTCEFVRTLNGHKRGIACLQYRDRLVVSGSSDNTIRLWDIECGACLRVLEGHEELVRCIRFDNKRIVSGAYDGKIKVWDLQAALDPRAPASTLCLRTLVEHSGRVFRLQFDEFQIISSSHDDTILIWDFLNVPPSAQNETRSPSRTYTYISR
UniProt Q70CQ3: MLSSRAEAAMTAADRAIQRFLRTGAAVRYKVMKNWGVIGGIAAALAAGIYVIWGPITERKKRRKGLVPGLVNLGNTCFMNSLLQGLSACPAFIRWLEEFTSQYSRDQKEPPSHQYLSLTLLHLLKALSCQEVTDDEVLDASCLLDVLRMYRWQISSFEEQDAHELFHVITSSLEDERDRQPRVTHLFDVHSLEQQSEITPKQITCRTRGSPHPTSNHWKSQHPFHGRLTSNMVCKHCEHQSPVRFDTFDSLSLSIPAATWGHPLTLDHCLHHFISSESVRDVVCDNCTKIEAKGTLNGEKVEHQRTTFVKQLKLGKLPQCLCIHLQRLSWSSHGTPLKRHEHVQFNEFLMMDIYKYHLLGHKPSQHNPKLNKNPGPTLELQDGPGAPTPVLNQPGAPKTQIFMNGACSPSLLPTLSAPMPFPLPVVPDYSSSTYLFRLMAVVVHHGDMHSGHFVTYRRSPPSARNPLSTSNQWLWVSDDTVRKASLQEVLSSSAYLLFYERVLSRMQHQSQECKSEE
UniProt Q969V5: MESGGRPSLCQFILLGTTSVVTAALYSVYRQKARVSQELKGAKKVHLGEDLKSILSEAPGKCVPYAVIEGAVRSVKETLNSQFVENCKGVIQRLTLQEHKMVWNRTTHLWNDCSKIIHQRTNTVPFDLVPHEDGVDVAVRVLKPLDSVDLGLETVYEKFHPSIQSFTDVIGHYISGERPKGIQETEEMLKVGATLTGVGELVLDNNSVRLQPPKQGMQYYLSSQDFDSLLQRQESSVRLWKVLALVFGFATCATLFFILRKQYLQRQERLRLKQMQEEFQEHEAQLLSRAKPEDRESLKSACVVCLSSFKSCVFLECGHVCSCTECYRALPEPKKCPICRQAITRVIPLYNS

Key:
Experiment in all cases: affinity purification with mass spectrometry
[1] = molecular target: T1, SLC16A6 T245E (human) (UniProt O15403)
T1 sequence: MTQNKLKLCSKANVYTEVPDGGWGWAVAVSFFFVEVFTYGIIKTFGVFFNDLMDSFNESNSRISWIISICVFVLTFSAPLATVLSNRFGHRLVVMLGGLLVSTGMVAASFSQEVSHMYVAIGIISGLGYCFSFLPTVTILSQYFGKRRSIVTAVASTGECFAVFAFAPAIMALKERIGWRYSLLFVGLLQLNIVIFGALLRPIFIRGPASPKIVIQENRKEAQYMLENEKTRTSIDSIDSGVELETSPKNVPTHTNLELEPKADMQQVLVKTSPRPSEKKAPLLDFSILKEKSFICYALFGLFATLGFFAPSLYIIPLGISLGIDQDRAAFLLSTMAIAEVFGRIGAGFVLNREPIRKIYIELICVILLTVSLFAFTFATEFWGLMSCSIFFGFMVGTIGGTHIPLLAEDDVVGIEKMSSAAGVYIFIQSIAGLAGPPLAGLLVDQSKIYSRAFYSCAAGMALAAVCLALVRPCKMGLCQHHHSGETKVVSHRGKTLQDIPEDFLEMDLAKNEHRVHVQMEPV

[2] = molecular target: T2, SLC16A6 (human) (UniProt O15403)
T2 sequence: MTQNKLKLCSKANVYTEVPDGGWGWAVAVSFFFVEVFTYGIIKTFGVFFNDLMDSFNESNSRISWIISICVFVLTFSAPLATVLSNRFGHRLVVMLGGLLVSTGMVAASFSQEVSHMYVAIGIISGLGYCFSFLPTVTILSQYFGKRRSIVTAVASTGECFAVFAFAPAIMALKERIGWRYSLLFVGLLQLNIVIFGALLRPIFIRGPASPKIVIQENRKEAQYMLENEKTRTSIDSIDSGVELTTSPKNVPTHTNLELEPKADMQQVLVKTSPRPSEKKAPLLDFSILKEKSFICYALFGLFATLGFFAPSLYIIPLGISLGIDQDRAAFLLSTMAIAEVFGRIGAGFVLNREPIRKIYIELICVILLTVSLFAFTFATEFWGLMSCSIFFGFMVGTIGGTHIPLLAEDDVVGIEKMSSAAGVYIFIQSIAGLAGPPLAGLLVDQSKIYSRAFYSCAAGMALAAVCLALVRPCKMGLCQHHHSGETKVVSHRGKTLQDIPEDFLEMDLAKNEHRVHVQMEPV

[3] = molecular target: MTCH1 (human) (UniProt Q9NZJ7)
[4] = molecular target: T3, MTCH2 (human) (UniProt Q9Y6C9)
T3 sequence: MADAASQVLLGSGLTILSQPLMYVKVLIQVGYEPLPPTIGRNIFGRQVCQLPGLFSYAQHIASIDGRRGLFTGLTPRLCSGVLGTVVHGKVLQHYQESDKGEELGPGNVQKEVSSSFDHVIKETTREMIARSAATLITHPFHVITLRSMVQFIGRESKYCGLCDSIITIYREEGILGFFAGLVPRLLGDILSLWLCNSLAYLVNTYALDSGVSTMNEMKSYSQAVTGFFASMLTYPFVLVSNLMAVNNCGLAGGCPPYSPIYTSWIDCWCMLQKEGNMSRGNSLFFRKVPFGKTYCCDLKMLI

[5] = molecular target: T4, SLC39A8 (human) (UniProt Q9C0K1)
T4 sequence: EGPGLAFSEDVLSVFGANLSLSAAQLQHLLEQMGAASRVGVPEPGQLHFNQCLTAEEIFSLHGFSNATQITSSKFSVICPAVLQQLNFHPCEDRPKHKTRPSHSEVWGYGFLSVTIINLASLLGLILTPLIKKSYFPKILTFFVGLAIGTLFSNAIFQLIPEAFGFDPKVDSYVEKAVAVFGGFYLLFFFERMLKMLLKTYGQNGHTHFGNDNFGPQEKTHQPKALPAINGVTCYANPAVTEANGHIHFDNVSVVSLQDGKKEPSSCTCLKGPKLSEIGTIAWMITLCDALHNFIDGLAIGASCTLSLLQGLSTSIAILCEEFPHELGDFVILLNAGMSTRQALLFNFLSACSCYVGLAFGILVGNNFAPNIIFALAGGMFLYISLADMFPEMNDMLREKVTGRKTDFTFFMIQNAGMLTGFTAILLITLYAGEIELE

[6] = molecular target: SLC43A2 (human) (UniProt Q8N370)

binding [1]: binds
binding [2]: binds
Molecule: BTRC (from UniProt Q9Y297 1-605)

binding [1]: binds
binding [2]: binds
Molecule: FBXW11 (from UniProt Q9UKB1 1-542)

binding [6]: binds
B2: LIN7C (protein, UniProt Q9NUP9 1-197)
chain: MAALGEPVRLERDICRAIELLEKLQRSGEVPPQKLQALQRVLQSEFCNAVREVYEHVYETVDISSSPEVRANATAKATVAAFAASEGHSHPRVVELPKTEEGLGFNIMGGKEQNSPIYISRIIPGGIADRHGGLKRGDQLLSVNGVSVEGEHHEKAVELLKAAQGKVKLVVRYTPKVLEEMESRFEKMRSAKRRQQT

More lines, now with the values behind:

Molecule: Ubiquitin carboxyl-terminal hydrolase 30 (from UniProt Q70CQ3 1-517)
binding [3]: binds
binding [4]: binds

Molecule: mitochondrial ubiquitin ligase activator of NFKB1 (from UniProt Q969V5 1-352)
binding [3]: binds
binding [4]: binds

B1: NFXL1 (protein, UniProt Q6ZNB6 1-911)
chain: MEASWRQVAGGRGRSRGRATAAPSGNGVHLRGAGGGREKGSVGAVPSGTSPGGVATTAAAGSRHSPAGSQALQTTAASELMSQKKFEEIKKANQAAARKLVEEQFSSSSEEGDEDFEGKQGKILANTFITYTTQTDGDTRELERTKQYVNEAFQAGAMTCLICIASVKRNQAVWSCSGCFCIFHMPCIQKWAKDSQFLVSSVTDDDFGKKDCPWPCPKCRFEYKRSETPSRYYCYCGKVEDPPLDPWLVPHSCGQVCEREFKPPCGHKCLLLCHPGPCPPCPKMVTTTCYCKKAKPIPRRCSAKEWSCQLPCGQKLLCGQHKCENPCHAGSCQPCPRVSRQKCVCGKKVAERSCASPLWHCDQVCGKTLPCGNHTCEQVCHVGACGECPRSGKRFCPCQKSKFSLPCTEDVPTCGDSCDKVLECGIHRCSQRCHRGPCETCRQEVEKHCRCGKHTKRMPCHKPYLCETKCVKMRDCQKHQCRRKCCPGNCPPCDQNCGRTLGCRNHKCPSVCHRGSCYPCPETVDVKCNCGNTKVTVPCGRERTTRPPKCKEQCSRPPTCHHTSQEKHRCHFGSCPPCHQPCQKVLEKCGHLCPAPCHDQALIKQTGRHQPTGPWEQPSEPAFIQTALPCPPCQVPIPMECLGKHEVSPLPCHAVGPYSCKRVCGRILDCQNHTCMKECHKVTKTDGCTGKNKAGPECLHCEEGCSKSRPLGCLHPCILRCHPGECPPCVQMLRIKCHCKITSLYVECRKITTADVNEKNLLSCCKNQCPKELPCGHRCKEMCHPGECPFNCNQKVKLRCPCKRIKKELQCNKVRENQVSIECDTTCKEMKRKASEIKEAEAKAALEEEKRRQQAELEAFENRLKGRRKKNRKRDEVAVELSLWQKHKYYLISVCGVVVVVFAWYITHDVN
binding [5]: binds

B3: sorting nexin 25 (protein, UniProt Q9H3E2 1-840)
chain: MDKALKEVFDYSYRDYILSWYGNLSRDEGQLYHLLLEDFWEIARQLHHRLSHVDVVKVVCNDVVRTLLTHFCDLKAANARHEEQPRPFVLHACLRNSDDEVRFLQTCSRVLVFCLLPSKDVQSLSLRIMLAEILTTKVLKPVVELLSNPDYINQMLLAQLAYREQMNEHHKRAYTYAPSYEDFIKLINSNSDVEFLKQLRYQIVVEIIQATTISSFPQLKRHKGKETAAMKADLLRARNMKRYINQLTVAKKQCEKRIRILGGPAYDQQEDGALDEGEGPQSQKILQFEDILANTFYREHFGMYMERMDKRALISFWESVEHLKNANKNEIPQLVGEIYQNFFVESKEISVEKSLYKEIQQCLVGNKGIEVFYKIQEDVYETLKDRYYPSFIVSDLYEKLLIKEEEKHASQMISNKDEMGPRDEAGEEAVDDGTNQINEQASFAVNKLRELNEKLEYKRQALNSIQNAPKPDKKIVSKLKDEIILIEKERTDLQLHMARTDWWCENLGMWKASITSGEVTEENGEQLPCYFVMVSLQEVGGVETKNWTVPRRLSEFQNLHRKLSECVPSLKKVQLPSLSKLPFKSIDQKFMEKSKNQLNKFLQNLLSDERLCQSEALYAFLSPSPDYLKVIDVQGKKNSFSLSSFLERLPRDFFSHQEEETEEDSDLSDYGDDVDGRKDALAEPCFMLIGEIFELRGMFKWVRRTLIALVQVTFGRTINKQIRDTVSWIFSEQMLVYYINIFRDAFWPNGKLAPPTTIRSKEQSQETKQRAQQKLLENIPDMLQSLVGQQNARHGIIKIFNALQETRANKHLLYALMELLLIELCPELRVHLDQLKAGQV
binding [5]: binds

B4: GOLM1 (protein, UniProt Q8NBJ4 1-401)
chain: MMGLGNGRRSMKSPPLVLAALVACIIVLGFNYWIASSRSVDLQTRIMELEGRVRRAAAERGAVELKKNEFQGELEKQREQLDKIQSSHNFQLESVNKLYQDEKAVLVNNITTGERLIRVLQDQLKTLQRNYGRLQQDVLQFQKNQTNLERKFSYDLSQCINQMKEVKEQCEERIEEVTKKGNEAVASRDLSENNDQRQQLQALSEPQPRLQAAGLPHTEVPQGKGNVLGNSKSQTPAPSSEVVLDSKRQVEKEETNEIQVVNEEPQRDRLPQEPGREQVVEDRPVGGRGFGGAGELGQTPQVQAALSVSQENPEMEGPERDQLVIPDGQEEEQEAAGEGRNQQKLRGEDDYNMDENEAESETDKQAALAGNDRNIDVFNVEDQKRDTINLLDQREKRNHTL
binding [5]: binds
